Reference: PubChem BioAssay AID1259405 (NCATS, 2018)
Shown is a random part of about 50,000 reagents. About 4,000 of all reagents (8%) count as active. 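Mouse siRNA library applied to hamster cells; one well for each siRNA.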 Reagents against one gene are numbered here. No sequences are given here.

Purpose: 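Mouse-designed siRNAs used to find CHO productivity engineering targets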 (primary screen)
System: Chinese hamster CHO-K1 ovary cells with stable secreted eGFP expression
Knock-down reagent: single siRNA against mouse genes, 0.8 pmol siRNA per well (2 µl of 400 nM stock)
Duration: 3 days
Measurement: 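Percent of the per-plate non-targeting control median for intracellular GFP per well by laser scanning cytometry and for cell viability by ATP luminescence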
Reading the numbers: GFP, % of control: higher = more GFP per well, higher productivity; viability (ATP), % of control: higher = more viable cells (more ATP)
Call rule: 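a knock-down is called active if GFP reaches 120% or more of non-targeting control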

target gene | reagent no. | GFP, % of control | viability (ATP), % of control | call
Cemip2 | 1 | 73.5 | 83.9 | inactive
Cemip2 | 2 | 88.1 | 116 | inactive
Cemip2 | 3 | 106 | 127 | inactive
Mllt3 | 1 | 83.2 | 73.8 | inactive
Mllt3 | 2 | 94.7 | 97.5 | inactive
Mllt3 | 3 | 44.4 | 63.6 | inactive
Lrrc25 | 1 | 58 | 62.5 | inactive
Lrrc25 | 2 | 73.9 | 62.3 | inactive
Lrrc25 | 3 | 28.6 | 17.6 | inactive
Kyat3 | 1 | 61.9 | 56.3 | inactive
Kyat3 | 2 | 72.2 | 97.6 | inactive
Kyat3 | 3 | 74.1 | 56.4 | inactive
Krt73 | 1 | 41.5 | 51.1 | inactive
Krt73 | 2 | 67 | 71.3 | inactive
Krt73 | 3 | 47.2 | 58.5 | inactive
Bex3 | 1 | 63.3 | 43.8 | inactive
Bex3 | 2 | 83.9 | 99.9 | inactive
Bex3 | 3 | 106 | 58.2 | inactive
Ckap2l | 1 | 106 | 62.9 | inactive
Ckap2l | 2 | 93.3 | 128 | inactive
Ckap2l | 3 | 58 | 72.3 | inactive
Pomt2 | 1 | 125 | 109 | active
Pomt2 | 2 | 124 | 113 | active
Pomt2 | 3 | 76.9 | 81.3 | inactive
Gpihbp1 | 1 | 90.3 | 66.3 | inactive
Gpihbp1 | 2 | 47 | 32.1 | inactive
Gpihbp1 | 3 | 88.1 | 46.2 | inactive
Gpr37 | 1 | 136 | 61.4 | active
Gpr37 | 2 | 60.7 | 63.2 | inactive
Gpr37 | 3 | 72.1 | 68.2 | inactive
Or5p76 | 1 | 67.2 | 42.1 | inactive
Or5p76 | 2 | 47.4 | 66.3 | inactive
Or5p76 | 3 | 0.0288 | 26.5 | inactive
Junb | 1 | 99.9 | 105 | inactive
Junb | 2 | 92.9 | 70 | inactive
Junb | 3 | 91.3 | 103 | inactive
Zbtb20 | 1 | 109 | 92.4 | inactive
Zbtb20 | 2 | 58.7 | 78 | inactive
Mif4gd | 1 | 82.7 | 88.8 | inactive
Mif4gd | 2 | 197 | 67.7 | active
Mif4gd | 3 | 115 | 74.9 | inactive
Kat7 | 1 | 63.7 | 87.7 | inactive
Kat7 | 2 | 73.1 | 52 | inactive
Kat7 | 3 | 80 | 68.8 | inactive
Usp3 | 1 | 67.8 | 83.8 | inactive
Usp3 | 2 | 38 | 32.2 | inactive
Usp3 | 3 | 74.1 | 56.4 | inactive
Ankrd13d | 1 | 64.2 | 76.7 | inactive
Ankrd13d | 2 | 59.7 | 72 | inactive
Ankrd13d | 3 | 68.7 | 49.3 | inactive
Ap4e1 | 1 | 88.8 | 31.8 | inactive
Ap4e1 | 2 | 66.4 | 30.5 | inactive
Ap4e1 | 3 | 155 | 125 | active
Nfam1 | 1 | 65.2 | 50.7 | inactive
Nfam1 | 2 | 50.6 | 43.1 | inactive
Nfam1 | 3 | 71.2 | 73.5 | inactive
Or52a20 | 1 | 119 | 84.1 | inactive
Or52a20 | 2 | 76.9 | 79.1 | inactive
Or52a20 | 3 | 56.2 | 37.6 | inactive
Fibcd1 | 1 | 123 | 136 | active
Fibcd1 | 2 | 88 | 91.6 | inactive
Mta3 | 1 | 51.8 | 68.9 | inactive
Mta3 | 2 | 93.6 | 81.9 | inactive
Mta3 | 3 | 61.8 | 69.9 | inactive
Ikzf1 | 1 | 106 | 107 | inactive
Ikzf1 | 2 | 82.1 | 79.7 | inactive
Ssty1 | 1 | 75.4 | 73.8 | inactive
Ssty1 | 2 | 105 | 101 | inactive
Ssty1 | 3 | 54.4 | 40.6 | inactive
Aifm3 | 1 | 67.2 | 31.9 | inactive
Aifm3 | 2 | 59.9 | 40.2 | inactive
Aifm3 | 3 | 90.5 | 65.9 | inactive
Egr4 | 1 | 66.1 | 81.7 | inactive
Egr4 | 2 | 67.7 | 88.3 | inactive
Ppfibp1 | 1 | 82.1 | 79.5 | inactive
Ppfibp1 | 2 | 64.5 | 68.9 | inactive
Ppfibp1 | 3 | 81.9 | 103 | inactive
Zranb2 | 1 | 34.9 | 27 | inactive
Zranb2 | 2 | 58.1 | 63.4 | inactive
Zranb2 | 3 | 45.4 | 48.8 | inactive
Or9i2 | 1 | 85.7 | 84 | inactive
Or9i2 | 2 | 82.5 | 95.6 | inactive
Or9i2 | 3 | 74.4 | 65.2 | inactive
Prr18 | 1 | 80.1 | 91.6 | inactive
Prr18 | 2 | 104 | 55.4 | inactive
Prr18 | 3 | 74.9 | 72.9 | inactive
